PubChem BioAssay AID686937 – Drosophila RNAi Screening Center | 2013
In all, the deposit lists about 23,000 reagents; shown is an unselected part of those with a known target gene and a result. 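Reduced-secretion tags in replicate 1 do not always agree with the z-scores; no criterion for assigning the tags was given.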 Reagents against one gene are numbered here. Not all columns of the deposit are shown. Not given: the amount of reagent.

- Assay: 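Genes whose loss weakens secretory pathway function in fly cells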 (primary screen)
- Cells: Drosophila S2 cells expressing secreted horseradish peroxidase
- Knock-down reagent: long dsRNA against Drosophila genes
- Duration: about 5.5 days (5 days dsRNA, then 12 h reporter induction)
- Conditions: reporter expression induced after 5 days of dsRNA, read 12 h later; inducer not stated
- Detection: 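After 5 days of dsRNA and 12 h of reporter induction, medium peroxidase read by chemiluminescence and scored as per-plate z-score; higher values mean more reporter released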
- Scale: z-score: higher = more reporter secreted into medium

Against Cpr65Ec, the values are z-score, replicate 1 = 0.42.
With knock-down of Gr92a, the record shows z-score, replicate 1 = 0.1.
With knock-down of CR40441, the record shows z-score, replicate 1 = -0.64.
With knock-down of CG4714 the results were z-score, replicate 1 = 0.33.
With knock-down of CG3191 the results were z-score, replicate 1 = 0.2.
Silencing of HDAC3 resulted in: z-score, replicate 1 = 0.32.
Against CG5033, the values are z-score, replicate 1 = 0.26.
CG15484 #1 showed z-score, replicate 1 = 0.08.
Silencing of CG15484 #2 gave: z-score, replicate 1 = 0.35.
Silencing of trr gave: z-score, replicate 1 = 0.52.

2 entries from above, ordered by “z-score, replicate 1”, ascending.
CG15484 #1 | z-score, replicate 1: 0.08
CG5033 | z-score, replicate 1: 0.26

The results go on.
CG2127 gave z-score, replicate 1 = 0.31.
For CG13606, the values are z-score, replicate 1 = 0.38.
Knock-down of RnpS1 resulted in: z-score, replicate 1 = 0.46.
CG5174 showed z-score, replicate 1 = -2.85.
Knock-down of CG5078 gave: z-score, replicate 1 = 0.17.
CG6739 gave z-score, replicate 1 = 0.33.
With knock-down of ScsbetaG the results were z-score, replicate 1 = 0.29.
Against Cpr72Ea, the entry reads z-score, replicate 1 = 0.27.
Cox11 scored z-score, replicate 1 = 0.49.
dany scored z-score, replicate 1 = -6.84.
Against ac, the values are z-score, replicate 1 = -0.08.
With knock-down of synr, the screen gave z-score, replicate 1 = 0.81.
For scra, the entry reads z-score, replicate 1 = -0.28.
For CG43219, the values are z-score, replicate 1 = 0.24.
After knock-down of dpr19 the results were z-score, replicate 1 = 0.14.
CG14327 gave z-score, replicate 1 = -0.24.
Depletion of T48 came out at: z-score, replicate 1 = 0.21.
